Values from PubChem BioAssay AID1259425 (University of Nebraska Medical Center, 2018).

- Screen: 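Compare each knockdown with KSR1 silencing using changes in marker transcripts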 (primary screen)
- Cell system: HCT116 human colon cancer cells
- Knock-down reagent: siRNA pool against human genes, 50 nM siRNA
- Measured: 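mRNA of six signature genes measured together by branched-DNA assay after 50 nM siRNA pool, blank removed, divided by geometric mean of two housekeeping genes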
- Direction: BNIP3L mRNA: higher = more BNIP3L transcript after knockdown
This is an unselected part of about 14,000 reagents. Not all columns of the deposit are shown. Not given: the time to read-out.

SORD [SID363994246] → BNIP3L mRNA, set 1: 0.0772
BAX [SID363995314] → BNIP3L mRNA, set 1: 0.119
ATP9A [SID364005048] → BNIP3L mRNA, set 1: 0.114
SAG [SID363991864] → BNIP3L mRNA, set 1: 0.134
CRLF2 [SID364002374] → BNIP3L mRNA, set 1: 0.092
PSKH1 [SID363997513] → BNIP3L mRNA, set 1: 0.107
ACTA2 [SID363992840] → BNIP3L mRNA, set 1: 0.126
PGM1 [SID363993801] → BNIP3L mRNA, set 1: 0.134
ACOT9 [SID363998242] → BNIP3L mRNA, set 1: 0.0938
PGM2 [SID364000947] → BNIP3L mRNA, set 1: 0.165
LMAN2L [SID364003455] → BNIP3L mRNA, set 1: 0.154
ZMYM2 [SID363994553] → BNIP3L mRNA, set 1: 0.0749

Next part, starting with the last 2 of the part before.
LMAN2L [SID364003455] → BNIP3L mRNA, set 1: 0.154
ZMYM2 [SID363994553] → BNIP3L mRNA, set 1: 0.0749
MMS19 [SID364002417] → BNIP3L mRNA, set 1: 0.1
EDEM1 [SID364005566] → BNIP3L mRNA, set 1: 0.0868
NTN1 [SID363995775] → BNIP3L mRNA, set 1: 0.12
FERMT1 [SID364000435] → BNIP3L mRNA, set 1: 0.259
ADGRA2 [SID364004163] → BNIP3L mRNA, set 1: 0.176
HADHA [SID363991518] → BNIP3L mRNA, set 1: 0.0687
B3GALT5 [SID363996904] → BNIP3L mRNA, set 1: 0.27
GPRC5B [SID363999970] → BNIP3L mRNA, set 1: 0.197
PECAM1 [SID363991773] → BNIP3L mRNA, set 1: 0.0667
ARFGAP2 [SID364003963] → BNIP3L mRNA, set 1: 0.115
KLRG1 [SID363996688] → BNIP3L mRNA, set 1: 0.0672
DDX59 [SID364003594] → BNIP3L mRNA, set 1: 0.261
NHEJ1 [SID364003053] → BNIP3L mRNA, set 1: 0.181
PIGK [SID363996384] → BNIP3L mRNA, set 1: 0.0975
ZNF165 [SID363994548] → BNIP3L mRNA, set 1: 0.125
PLEK [SID363993832] → BNIP3L mRNA, set 1: 0.128
